From the supplement of paper PMC10849652
Some of the results follow. Residues, ends and D or L forms follow the SMILES beside them. *: point of attachment. Cbz = O=C(OCc1ccccc1)*

By UniProt entry, the sequences of proteins in these tests, tags left out. Where a name states a change or a piece, a line headed by the entry shows the natural chain unless it says otherwise.
UniProt O43399: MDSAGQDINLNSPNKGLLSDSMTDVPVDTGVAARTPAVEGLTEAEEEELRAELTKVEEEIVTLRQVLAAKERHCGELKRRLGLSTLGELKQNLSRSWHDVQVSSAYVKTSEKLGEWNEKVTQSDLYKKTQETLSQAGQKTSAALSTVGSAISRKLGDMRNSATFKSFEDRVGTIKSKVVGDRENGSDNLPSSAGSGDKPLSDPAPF
UniProt Q5T2D2: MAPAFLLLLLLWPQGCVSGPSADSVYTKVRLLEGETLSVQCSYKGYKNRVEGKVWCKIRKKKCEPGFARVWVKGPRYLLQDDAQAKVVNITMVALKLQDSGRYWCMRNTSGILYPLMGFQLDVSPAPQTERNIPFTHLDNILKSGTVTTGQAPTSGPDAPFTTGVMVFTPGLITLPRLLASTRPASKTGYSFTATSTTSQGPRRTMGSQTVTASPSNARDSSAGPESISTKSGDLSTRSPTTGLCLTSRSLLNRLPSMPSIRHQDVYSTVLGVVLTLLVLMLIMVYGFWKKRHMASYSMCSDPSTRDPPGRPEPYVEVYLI
UniProt Q9BW30: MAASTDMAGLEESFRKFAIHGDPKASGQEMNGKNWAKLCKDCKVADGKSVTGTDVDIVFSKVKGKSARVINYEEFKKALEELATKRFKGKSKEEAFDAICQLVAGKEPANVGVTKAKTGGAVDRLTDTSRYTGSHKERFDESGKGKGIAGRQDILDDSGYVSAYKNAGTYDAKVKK
UniProt P55327: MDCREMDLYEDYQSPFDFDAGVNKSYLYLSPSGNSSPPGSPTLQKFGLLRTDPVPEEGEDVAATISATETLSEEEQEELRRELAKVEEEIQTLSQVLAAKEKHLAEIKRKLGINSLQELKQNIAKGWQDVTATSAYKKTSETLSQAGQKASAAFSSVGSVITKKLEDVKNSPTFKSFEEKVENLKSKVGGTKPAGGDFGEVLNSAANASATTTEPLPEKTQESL
UniProt Q5JTV8: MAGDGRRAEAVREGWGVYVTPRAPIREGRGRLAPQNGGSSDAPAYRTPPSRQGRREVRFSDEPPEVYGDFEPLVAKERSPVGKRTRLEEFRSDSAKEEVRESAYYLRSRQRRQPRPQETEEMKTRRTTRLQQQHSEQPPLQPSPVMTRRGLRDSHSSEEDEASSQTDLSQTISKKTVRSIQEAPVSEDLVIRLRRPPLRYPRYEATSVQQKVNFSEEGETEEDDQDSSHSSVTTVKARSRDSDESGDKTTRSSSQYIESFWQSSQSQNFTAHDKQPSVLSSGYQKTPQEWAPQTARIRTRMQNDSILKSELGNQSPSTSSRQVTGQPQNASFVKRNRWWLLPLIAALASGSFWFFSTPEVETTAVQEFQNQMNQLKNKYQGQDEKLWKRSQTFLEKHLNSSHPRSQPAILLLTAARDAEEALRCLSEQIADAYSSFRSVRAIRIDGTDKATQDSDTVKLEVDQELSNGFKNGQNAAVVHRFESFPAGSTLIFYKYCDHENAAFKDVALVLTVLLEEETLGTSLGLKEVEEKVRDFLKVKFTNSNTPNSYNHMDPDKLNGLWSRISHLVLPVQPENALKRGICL
UniProt Q9H3H1: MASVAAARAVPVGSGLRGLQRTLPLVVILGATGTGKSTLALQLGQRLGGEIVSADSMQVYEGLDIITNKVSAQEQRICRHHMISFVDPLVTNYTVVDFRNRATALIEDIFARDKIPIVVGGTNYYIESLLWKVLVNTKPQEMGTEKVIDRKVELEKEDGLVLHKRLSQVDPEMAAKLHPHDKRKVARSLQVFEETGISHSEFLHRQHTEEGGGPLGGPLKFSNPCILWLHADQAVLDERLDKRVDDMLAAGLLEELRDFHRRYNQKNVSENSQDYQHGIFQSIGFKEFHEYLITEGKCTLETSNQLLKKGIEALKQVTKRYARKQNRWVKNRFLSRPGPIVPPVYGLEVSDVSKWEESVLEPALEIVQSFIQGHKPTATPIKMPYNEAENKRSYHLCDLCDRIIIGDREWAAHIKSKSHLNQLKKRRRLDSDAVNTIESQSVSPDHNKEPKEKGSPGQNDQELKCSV
UniProt O95271: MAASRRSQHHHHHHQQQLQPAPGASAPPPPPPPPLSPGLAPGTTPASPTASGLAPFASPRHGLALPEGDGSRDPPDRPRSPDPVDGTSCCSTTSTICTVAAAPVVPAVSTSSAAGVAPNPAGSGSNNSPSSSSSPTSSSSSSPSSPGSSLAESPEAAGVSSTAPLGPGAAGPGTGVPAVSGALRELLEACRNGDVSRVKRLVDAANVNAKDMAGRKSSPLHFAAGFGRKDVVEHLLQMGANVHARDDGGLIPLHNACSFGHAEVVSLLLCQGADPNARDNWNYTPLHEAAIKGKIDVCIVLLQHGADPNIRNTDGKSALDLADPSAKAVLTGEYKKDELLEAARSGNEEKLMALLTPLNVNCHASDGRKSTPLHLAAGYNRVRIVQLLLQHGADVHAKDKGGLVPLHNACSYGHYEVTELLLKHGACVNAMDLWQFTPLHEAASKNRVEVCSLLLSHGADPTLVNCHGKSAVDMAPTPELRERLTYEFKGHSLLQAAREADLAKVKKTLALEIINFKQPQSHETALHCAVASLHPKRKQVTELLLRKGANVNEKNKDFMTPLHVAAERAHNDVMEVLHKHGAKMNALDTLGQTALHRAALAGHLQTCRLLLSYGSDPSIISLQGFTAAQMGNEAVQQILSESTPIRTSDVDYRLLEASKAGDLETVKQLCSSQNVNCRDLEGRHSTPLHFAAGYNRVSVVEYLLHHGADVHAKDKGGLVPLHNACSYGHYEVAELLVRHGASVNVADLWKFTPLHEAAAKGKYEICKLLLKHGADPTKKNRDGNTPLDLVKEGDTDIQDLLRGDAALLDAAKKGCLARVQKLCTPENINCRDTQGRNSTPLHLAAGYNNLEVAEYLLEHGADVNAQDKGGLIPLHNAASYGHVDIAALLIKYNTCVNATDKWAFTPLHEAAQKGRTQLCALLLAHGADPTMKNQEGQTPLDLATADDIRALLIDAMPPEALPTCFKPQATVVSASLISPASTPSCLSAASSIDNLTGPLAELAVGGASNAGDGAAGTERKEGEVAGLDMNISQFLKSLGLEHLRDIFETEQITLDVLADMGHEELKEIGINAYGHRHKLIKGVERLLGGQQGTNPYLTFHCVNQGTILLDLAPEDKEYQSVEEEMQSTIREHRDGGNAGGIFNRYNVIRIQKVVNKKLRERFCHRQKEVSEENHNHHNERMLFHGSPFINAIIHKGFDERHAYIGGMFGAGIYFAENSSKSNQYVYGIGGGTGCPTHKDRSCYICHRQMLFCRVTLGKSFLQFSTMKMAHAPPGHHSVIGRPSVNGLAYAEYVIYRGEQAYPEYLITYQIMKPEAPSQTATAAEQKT
UniProt O95900: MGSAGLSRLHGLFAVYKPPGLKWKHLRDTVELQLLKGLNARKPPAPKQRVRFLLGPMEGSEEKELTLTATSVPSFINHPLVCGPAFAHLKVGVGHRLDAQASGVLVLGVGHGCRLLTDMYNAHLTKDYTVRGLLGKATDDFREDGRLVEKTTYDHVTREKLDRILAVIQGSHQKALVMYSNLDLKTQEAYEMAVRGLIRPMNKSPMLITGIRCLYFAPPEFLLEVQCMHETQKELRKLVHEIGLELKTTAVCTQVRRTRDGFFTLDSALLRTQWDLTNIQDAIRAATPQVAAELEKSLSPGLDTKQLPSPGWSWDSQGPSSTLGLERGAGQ
UniProt P36406: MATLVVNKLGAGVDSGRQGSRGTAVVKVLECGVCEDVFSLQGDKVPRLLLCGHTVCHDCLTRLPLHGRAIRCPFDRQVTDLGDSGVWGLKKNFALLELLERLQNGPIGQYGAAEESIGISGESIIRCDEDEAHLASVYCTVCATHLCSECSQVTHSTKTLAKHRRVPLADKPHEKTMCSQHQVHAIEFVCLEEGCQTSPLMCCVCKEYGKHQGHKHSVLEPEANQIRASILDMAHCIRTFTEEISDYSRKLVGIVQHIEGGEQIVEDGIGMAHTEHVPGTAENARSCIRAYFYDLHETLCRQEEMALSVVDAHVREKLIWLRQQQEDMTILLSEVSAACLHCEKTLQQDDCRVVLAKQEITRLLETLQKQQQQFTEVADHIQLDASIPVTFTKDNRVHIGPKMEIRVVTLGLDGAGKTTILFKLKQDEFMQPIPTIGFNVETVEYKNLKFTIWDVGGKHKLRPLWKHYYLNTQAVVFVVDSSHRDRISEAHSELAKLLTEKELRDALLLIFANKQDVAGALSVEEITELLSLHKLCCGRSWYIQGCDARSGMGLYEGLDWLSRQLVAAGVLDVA
UniProt Q629K1: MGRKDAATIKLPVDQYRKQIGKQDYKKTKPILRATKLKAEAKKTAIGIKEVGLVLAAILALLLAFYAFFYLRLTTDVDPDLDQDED
UniProt Q13114: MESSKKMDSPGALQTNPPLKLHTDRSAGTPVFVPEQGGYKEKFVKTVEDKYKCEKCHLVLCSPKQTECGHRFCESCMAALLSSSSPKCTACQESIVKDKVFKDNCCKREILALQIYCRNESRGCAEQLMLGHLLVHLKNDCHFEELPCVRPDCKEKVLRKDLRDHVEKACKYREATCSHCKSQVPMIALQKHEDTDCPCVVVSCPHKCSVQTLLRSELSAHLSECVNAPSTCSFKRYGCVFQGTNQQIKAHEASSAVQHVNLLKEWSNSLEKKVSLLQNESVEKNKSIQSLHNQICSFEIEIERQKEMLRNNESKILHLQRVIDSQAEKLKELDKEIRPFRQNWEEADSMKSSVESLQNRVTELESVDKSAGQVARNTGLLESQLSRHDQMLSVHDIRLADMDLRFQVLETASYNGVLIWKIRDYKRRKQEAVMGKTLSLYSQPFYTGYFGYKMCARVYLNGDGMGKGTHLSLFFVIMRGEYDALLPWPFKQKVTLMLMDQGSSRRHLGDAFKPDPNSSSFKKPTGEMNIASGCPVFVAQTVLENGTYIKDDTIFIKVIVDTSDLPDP

Key:
Assay in all cases: log2 fold change, soluble protein after heating vs DMSO (PISA); higher = thermal stabilisation; K562 cells, 10 uM, 30 min; active = over 0.2 and 3.5 SD of the protein, either way, in both replicates (recomputed)
[1] = compound: C/C(=N\NC(=O)C1=CC(=CC=C1)S(=O)(=O)N2CCOCC2)/C3=C(C=CC(=C3)Cl)O
Procedure, shortened: (§1)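 Thermal stability values are relative to control samples and come from duplicates. They are expressed as log2 fold changes. For measurement, K562 cells (2×10^6 cells/mL) received 10 μM compound for 30 min, and aliquots were heated for 3 min over 48°C-58°C, pooled, and extracted at 4°C in PBS with 0.5% NP-40. Soluble protein, the supernatant after 21,000xg for 90 min, was quantified by TMTpro 16plex LC-MS/MS with equalised channel sums.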

[2] = compound: C1=CC(=C(C=C1Cl)C2=NC3=NC=CN=C3C(=N2)NC4=CC=NC=C4)F
Procedure, shortened: as §1

[3] = compound: C1=CC2=C(C=CC(=C2)/C=C\3/C(=O)NC(=NCC4=CC=CS4)S3)N=C1
Procedure, shortened: as §1

[4] = compound: C1=CC=C2C(=C1)C3=NNC4=CC=CC(=C43)C2=O
Procedure, shortened: as §1

[5] = compound: C1CCN(C1)C(=O)NC2=CC=CC(=C2)NC3=NC=C(C(=N3)NCCC4=CN=CN4)Br
Procedure, shortened: as §1

[6] = compound: C1CN(CCC1(CC2=CC=C(C=C2)Cl)N)C3=NC=NC4=C3C=CN4
Procedure, shortened: as §1

[7] = compound: CC(=O)c1cnc2ccc(-c3cc(Cl)c(O)c(Cl)c3)nc2c1N[C@H]1CC[C@H](CN(C)C)CC1
Procedure, shortened: as §1

[8] = compound: CC(C)(O)CC(=O)NCCn1ccc2ncnc(Nc3ccc(Oc4cccc(C(F)(F)F)c4)c(Cl)c3)c21
Procedure, shortened: as §1

[9] = compound: CC1=C(C(CC(=O)N1)C2=CC=C(C=C2)C(F)(F)F)C(=O)NC3=C(C=C4C(=C3)C=NN4)F
Procedure, shortened: as §1

[10] = compound: CC1=C(C2=C(C=C1)C(=O)C3=CC=CC=C3N2CCCN)C
Procedure, shortened: as §1

[11] = compound: C#Cc1cccc(Nc2ncnc3cc(OCCOC)c(OCCOC)cc23)c1 [erlotinib]
Procedure, shortened: as §1

[12] = compound: C1=CC(=CC=C1C2=NC3=C(N2)C=C(C=C3)C(=O)N)OC4=CC=C(C=C4)Cl
Procedure, shortened: as §1

[13] = compound: C1=CC2=NC=CN=C2C=C1/C=C/3\C(=O)NC(=O)S3
Procedure, shortened: as §1

[14] = compound: C1COCCN1CCN2C3=CC=CC=C3N=C2NC(=O)C4=CC(=CC=C4)[N+](=O)[O-] [IRAK-1-4 Inhibitor I]
Procedure, shortened: as §1

[15] = compound: C=CC(=O)N1CCC[C@@H](n2nc(-c3ccc(Oc4ccccc4)cc3)c3c(N)ncnc32)C1 [ibrutinib]
Procedure, shortened: as §1

[16] = compound: CC(C)C1=C2N=C(C=C(N2N=C1)NCC3=CC=CC=C3)NCCCCCCN
Procedure, shortened: as §1

[17] = compound: CC(C)N(C[C@H]1O[C@@H](n2cnc3c(N)ncnc32)[C@H](O)[C@@H]1O)[C@H]1C[C@@H](CCc2nc3cc(C(C)(C)C)ccc3[nH]2)C1 [pinometostat]
Procedure, shortened: as §1

[18] = compound: C1=CC=C(C=C1)C2=NC(=C(N2)C3=CC=NC=C3)C4=CC(=C(C=C4)Cl)O
Procedure, shortened: as §1

[19] = compound: CC(C)(C)Cn1c(N)nc2ccc(-c3[nH]c(C(C)(C)C)nc3-c3ccc(F)cc3)nc21 [ralimetinib]
Procedure, shortened: as §1

[20] = compound: CC(C)C[C@@H](C=O)NC(=O)[C@H](CC(C)C)NC(=O)[C@H](CC(C)C)NC(=O)OCc1ccccc1
Procedure, shortened: as §1

Measured: log2 fold change

TPD52L2 isoform 3 (UniProt O43399)
inactive: [1] 0.262 | [2] 0.007 | [3] 0.474 | [4] 0.065 | [5] 0.02 | [6] 0.066 | [7] -0.1 | [8] -0.07 | [9] -0.089 | [10] 0.161

TREML2 (UniProt Q5T2D2)
inactive: [11] 0.026 | [12] 0.107 | [13] -0.092 | [14] 0.005 | [15] 0.044 | [16] -0.127 | [17] 0.009

TPPP3 (UniProt Q9BW30)
inactive: [2] 0.209 | [18] 0.062 | [14] 0.032 | [19] 0.044 | [8] -0.133 | [20] 0.069 | [17] 0.065

TPD52 isoform 3 (UniProt P55327)
inactive: [13] 0.01 | [15] 0.164

TOR1AIP1 (UniProt Q5JTV8)
inactive: [1] -0.003 | [2] 0.181 | [3] -0.026 | [13] 0.004 | [18] -0.032 | [4] -0.001 | [14] 0.033 | [15] 0.018 | [7] 0.036 | [19] -0.036 | [8] 0.087 | [20] -0.013 | [17] -0.063 | [9] 0.13

TRIT1 (UniProt Q9H3H1)
inactive: [14] 0 | [17] 0.115

TNKS (UniProt O95271)
inactive: [1] 0.094 | [3] 0.004 | [4] 0.151 | [14] -0.536 | [7] -0.096 | [17] 0.466

TRUB2 (UniProt O95900)
inactive: [11] -0.404 | [2] -0.147 | [12] 0.195 | [14] -0.148 | [8] 0.074 | [16] -0.207 | [17] -0.125

TRIM23 (UniProt P36406)
inactive: [11] 0.006 | [12] 0.075 | [13] -0.096 | [18] 0.061 | [5] -0.202 | [6] 0.161 | [14] 0.064 | [15] 0.072 | [19] -0.034 | [16] 0.146 | [20] -0.019 | [17] -0.024 | [10] 0.242

TRIQK (UniProt Q629K1)
inactive: [2] -0.023 | [13] 0.046 | [18] -0.077 | [5] -0.003 | [6] 0.097 | [14] -0.059 | [15] 0.007 | [19] -0.011 | [8] -0.054 | [20] -0.004 | [17] 0.104 | [10] 0.114

TRAF3 (UniProt Q13114)
inactive: [18] 0.03 | [19] 0.13 | [20] -0.12
